{"source": "PubChem BioAssay AID1259308, NCATS | 2017", "test": "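Genes whose loss raises luciferase production in HEK293 cells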 (primary screen)", "system": "human HEK293 embryonic kidney cells stably expressing firefly luciferase (HEK-CMV-Luc2-Hygro)", "reagents": "single siRNA against human genes, 0.8 pmol siRNA per well", "timing": "72 h", "read-out": "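Reporter luminescence and viable-cell signal on separate replicate plates, given as percent of non-targeting control and median/MAD z-scores, plus per-cell luciferase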", "reading the numbers": "total luciferase, z-score and total luciferase, % of control: higher = more reporter protein produced", "rule for the call": "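An siRNA counts as active if its total luciferase robust z-score exceeds 3; genes with two or more such siRNAs out of three were retested with fresh siRNAs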", "meaning of the calls": "active = raised luciferase; inactive = no rise", "note": "In all, the deposit lists about 59,000 reagents; this is a part drawn at random. About 1,510 of them (2.6%) were called active. 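Calls use total luciferase alone and ignore viability, so some active siRNAs may act by altering cell number.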 Entries without a mark were called inactive. The numbers tell different reagents against one gene apart. Not all columns of the deposit are shown."}
{"Target gene": "STX7", "reagent": 1, "total luciferase, z-score": 0.56, "total luciferase, % of control": 93}
{"Target gene": "STX7", "reagent": 2, "total luciferase, z-score": 0.32, "total luciferase, % of control": 88.2}
{"Target gene": "STX7", "reagent": 3, "total luciferase, z-score": -0.686, "total luciferase, % of control": 68.2}
{"Target gene": "ZBTB49", "reagent": 1, "total luciferase, z-score": 1.2, "total luciferase, % of control": 106}
{"Target gene": "ZBTB49", "reagent": 2, "total luciferase, z-score": 0.114, "total luciferase, % of control": 84.2}
{"Target gene": "ZBTB49", "reagent": 3, "total luciferase, z-score": -1.95, "total luciferase, % of control": 43}
{"Target gene": "MC1R", "reagent": 1, "total luciferase, z-score": 0.117, "total luciferase, % of control": 84.2}
{"Target gene": "MC1R", "reagent": 2, "total luciferase, z-score": 1.46, "total luciferase, % of control": 111}
{"Target gene": "MC1R", "reagent": 3, "total luciferase, z-score": -2.3, "total luciferase, % of control": 36.1}
{"Target gene": "RBM7", "reagent": 1, "total luciferase, z-score": "3.42 (active)", "total luciferase, % of control": 150}
{"Target gene": "RBM7", "reagent": 2, "total luciferase, z-score": 0.43, "total luciferase, % of control": 90.4}
{"Target gene": "RBM7", "reagent": 3, "total luciferase, z-score": 0.414, "total luciferase, % of control": 90.1}

Entries listed above called active, once more:
{"Target gene": "RBM7", "reagent": 1, "total luciferase, z-score": "3.42 (active)", "total luciferase, % of control": 150}
